From publication PMC4550699
These are yes or no findings as the source states them, for the method shown. In cells and extracts the contact can be indirect. Tags and fused reporters may be left off the sequences shown.

Sequences of proteins named here, by UniProt entry; tags and fusion partners are left off.
UniProt Q9M7Q7: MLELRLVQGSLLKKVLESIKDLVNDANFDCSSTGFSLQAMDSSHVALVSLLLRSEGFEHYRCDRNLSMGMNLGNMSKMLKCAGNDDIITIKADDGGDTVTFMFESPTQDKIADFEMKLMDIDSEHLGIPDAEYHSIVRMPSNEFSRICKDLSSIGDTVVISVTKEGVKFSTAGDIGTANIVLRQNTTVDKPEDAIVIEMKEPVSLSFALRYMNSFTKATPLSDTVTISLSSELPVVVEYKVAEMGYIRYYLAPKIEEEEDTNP
UniProt Q9ZW35: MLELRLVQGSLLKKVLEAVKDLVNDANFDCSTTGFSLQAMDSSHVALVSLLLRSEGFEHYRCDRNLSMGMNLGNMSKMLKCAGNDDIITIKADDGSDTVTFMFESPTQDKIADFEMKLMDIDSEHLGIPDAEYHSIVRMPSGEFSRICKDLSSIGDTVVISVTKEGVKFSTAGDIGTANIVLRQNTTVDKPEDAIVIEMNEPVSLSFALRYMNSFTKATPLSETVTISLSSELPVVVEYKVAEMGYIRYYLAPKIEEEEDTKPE

Experiments:
[1] = molecular target: RFP_PCNA1 (Arabidopsis thaliana) (UniProt Q9M7Q7); assay: condition: FRET efficiency 0.41%; threshold 1.19%; FRET or BRET; FLIM-FRET in nuclei of transiently transformed N. benthamiana leaf cells; donor GFP fusion, acceptor RFP fusion; E = (1 - tauDA/tauD) x 100%; FRET efficiency of free GFP/RFP (1.19%) used as threshold
[2] = molecular target: PCNA2_RFP (Arabidopsis thaliana) (UniProt Q9ZW35); assay: condition: FRET efficiency 1.42%; threshold 1.19%; FRET or BRET; FLIM-FRET in nuclei of transiently transformed N. benthamiana leaf cells; donor GFP fusion, acceptor RFP fusion; E = (1 - tauDA/tauD) x 100%; FRET efficiency of free GFP/RFP (1.19%) used as threshold
[3] = molecular target: PCNA1_RFP (Arabidopsis thaliana) (UniProt Q9M7Q7); assay: condition: FRET efficiency 1.50%; threshold 1.19%; FRET or BRET; FLIM-FRET in nuclei of transiently transformed N. benthamiana leaf cells; donor GFP fusion, acceptor RFP fusion; E = (1 - tauDA/tauD) x 100%; FRET efficiency of free GFP/RFP (1.19%) used as threshold
[4] = molecular target: RFP_PCNA2 (Arabidopsis thaliana) (UniProt Q9ZW35); assay: condition: FRET efficiency 1.23%; threshold 1.19%; FRET or BRET; FLIM-FRET in nuclei of transiently transformed N. benthamiana leaf cells; donor GFP fusion, acceptor RFP fusion; E = (1 - tauDA/tauD) x 100%; FRET efficiency of free GFP/RFP (1.19%) used as threshold

Measured: binding

B1: CycD3;3_GFP (protein, UniProt Q9SN11 1-361)
chain: MALEEEEESQNAPFCVLDGLFCEEESEFHEQVDLCDESVEKFPFLNLGLSDHDMLWDDDELSTLISKQEPCLYDEILDDEFLVLCREKALDWIFKVKSHYGFNSLTALLAVNYFDRFITSRKFQTDKPWMSQLTALACLSLAAKVEEIRVPFLLDFQVEEARYVFEAKTIQRMELLVLSTLDWRMHPVTPISFFDHIIRRYSFKSHHQLEFLSRCESLLLSIIPDSRFLSFSPSVLATAIMVSVIRDLKMCDEAVYQSQLMTLLKVDSEKVNKCYELVLDHSPSKKRMMNWMQQPASPIGVFDASFSSDSSNESWVVSASASVSSSPSSEPLLKRRRVQEQQMRLSSINRMFFDVLSSSPR
no binding: all assays above
